# Source: the supplement of paper PMC8728848
# The list shows a part of the results.
# What was measured:
# Assay in all cases: glycan array binding signal (z-score within array); higher = stronger binding
# Conditions in all cases: glycan notation: IUPAC condensed, linker removed
# [1] = biological target: Gal3S(b1-4)Glc
# How it was run: (§1)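 Negative Z-scores can be read as non-binding. The Z-score is calculated within each array and then averaged across arrays of one protein sequence at different concentrations or buffers and across linkers. Arrays, 3228 in all, were curated from the Consortium for Functional Glycomics database and kept only where the protein sequence was available.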
# [2] = biological target: Gal3S(b1-4)Glc6S
# How it was run: as §1
# [3] = biological target: Gal3S(b1-4)GlcNAc
# How it was run: as §1
# [4] = biological target: Gal3S(b1-4)[Fuc(a1-3)]Glc6S
# How it was run: as §1
# [5] = biological target: Gal3S(b1-4)[Fuc(a1-3)]GlcNAc
# How it was run: as §1
# [6] = biological target: Gal3S(b1-4)[Fuc(a1-3)]GlcNAc6S
# How it was run: as §1
# [7] = biological target: Gal3S4S(b1-4)GlcNAc
# How it was run: as §1
# [8] = biological target: Gal3S6S(b1-4)GlcNAc
# How it was run: as §1
# [9] = biological target: Gal3S6S(b1-4)GlcNAc6S
# How it was run: as §1
# [10] = biological target: Gal4S(b1-4)GlcNAc
# How it was run: as §1
# [11] = biological target: Gal4S6S(b1-4)GlcNAc
# How it was run: as §1
# [12] = biological target: Gal6P(b1-4)GlcNAc
# How it was run: as §1
# [13] = biological target: Gal6S(b1-3)GlcNAc
# How it was run: as §1
# [14] = biological target: Gal6S(b1-3)GlcNAc6S
# How it was run: as §1
# [15] = biological target: Gal6S(b1-4)Glc
# How it was run: as §1
# [16] = biological target: Gal6S(b1-4)Glc6S
# How it was run: as §1
# [17] = biological target: Gal6S(b1-4)GlcNAc
# How it was run: as §1
# [18] = biological target: Gal6S(b1-4)GlcNAc6S
# How it was run: as §1
# [19] = biological target: GalNAc(a1-3)Gal
# How it was run: as §1
# [20] = biological target: GalNAc(a1-3)GalNAc
# How it was run: as §1
# [21] = biological target: GalNAc(a1-3)GalNAc(b1-3)Gal(a1-4)Gal(b1-4)Glc
# How it was run: as §1
# [22] = biological target: GalNAc(a1-3)GalNAc(b1-3)Gal(a1-4)Gal(b1-4)GlcNAc
# How it was run: as §1
# [23] = biological target: GalNAc(b1-3)Gal
# How it was run: as §1
# [24] = biological target: GalNAc(b1-3)Gal(a1-4)Gal(b1-4)GlcNAc
# How it was run: as §1
# [25] = biological target: GalNAc(b1-3)Gal(a1-4)Gal(b1-4)GlcNAc(b1-3)Gal(b1-4)Glc
# How it was run: as §1
# [26] = biological target: GalNAc(b1-3)Gal(a1-6)Gal(b1-4)Glc
# How it was run: as §1
# [27] = biological target: GalNAc(b1-3)GalNAc
# How it was run: as §1
# [28] = biological target: GalNAc(b1-3)GlcNAc
# How it was run: as §1
# [29] = biological target: GalNAc(b1-4)Gal(b1-4)Glc
# How it was run: as §1
# [30] = biological target: GalNAc(b1-4)GlcNAc
# How it was run: as §1
# [31] = biological target: GalNAc(b1-4)GlcNAc(b1-2)Man
# How it was run: as §1
# [32] = biological target: GalNAc(b1-4)GlcNAc(b1-2)Man(a1-3)[GalNAc(b1-4)GlcNAc(b1-2)Man(a1-6)]Man(b1-4)GlcNAc(b1-4)GlcNAc
# How it was run: as §1
# [33] = biological target: GalNAc(b1-4)GlcNAc(b1-3)GalNAc(b1-4)GlcNAc
# How it was run: as §1
# [34] = biological target: GalNAc(b1-4)GlcNAc6S
# How it was run: as §1
# [35] = biological target: GalNAc(b1-6)GalNAc
# How it was run: as §1
# [36] = biological target: GalNAc3S(b1-4)GlcNAc
# How it was run: as §1
# [37] = biological target: GalNAc3S(b1-4)GlcNAc3S
# How it was run: as §1
# [38] = biological target: GalNAc3S(b1-4)[Fuc(a1-3)]GlcNAc
# How it was run: as §1
# [39] = biological target: GalNAc4S6S(b1-4)GlcNAc
# How it was run: as §1
# [40] = biological target: GalNAc6S(b1-4)GlcNAc
# How it was run: as §1
# [41] = biological target: Glc(a1-4)Glc
# How it was run: as §1
# [42] = biological target: Glc(a1-4)Glc(a1-4)Glc(a1-4)Glc
# How it was run: as §1
# [43] = biological target: Glc(a1-6)Glc(a1-6)Glc
# How it was run: as §1
# [44] = biological target: Glc(a1-6)Glc(a1-6)Glc(a1-6)Glc
# How it was run: as §1
# [45] = biological target: Glc(b1-4)Glc
# How it was run: as §1
# [46] = biological target: Glc(b1-6)Glc
# How it was run: as §1
# [47] = biological target: GlcA(b1-3)Gal
# How it was run: as §1
# [48] = biological target: GlcA(b1-3)GlcNAc
# How it was run: as §1
# [49] = biological target: GlcA(b1-6)Gal
# How it was run: as §1
# [50] = biological target: GlcA3S(b1-3)Gal(b1-4)GlcNAc(b1-2)Man
# How it was run: as §1
# [51] = biological target: GlcA3S(b1-3)Gal(b1-4)GlcNAc(b1-3)Gal(b1-4)Glc
# How it was run: as §1
# [52] = biological target: GlcNAc(a1-3)Gal(b1-4)GlcNAc
# How it was run: as §1
# [53] = biological target: GlcNAc(a1-4)Gal(b1-3)GlcNAc
# How it was run: as §1
# [54] = biological target: GlcNAc(a1-4)Gal(b1-4)GalNAc
# How it was run: as §1
# [55] = biological target: GlcNAc(a1-4)Gal(b1-4)GlcNAc
# How it was run: as §1
# [56] = biological target: GlcNAc(a1-4)Gal(b1-4)GlcNAc(b1-3)Gal(b1-4)Glc
# How it was run: as §1
# [57] = biological target: GlcNAc(a1-4)Gal(b1-4)GlcNAc(b1-3)Gal(b1-4)GlcNAc
# How it was run: as §1
# [58] = biological target: GlcNAc(a1-4)Gal(b1-4)GlcNAc(b1-3)Gal(b1-4)GlcNAc(b1-3)Gal(b1-4)GlcNAc
# How it was run: as §1
# [59] = biological target: GlcNAc(a1-4)Gal(b1-4)GlcNAc(b1-3)Gal(b1-4)[Fuc(a1-3)]GlcNAc(b1-3)Gal(b1-4)[Fuc(a1-3)]GlcNAc
# How it was run: as §1
# [60] = biological target: GlcNAc(a1-6)Gal(b1-4)GlcNAc
# How it was run: as §1
binder,measurement,setting,value
GS7807I-bvu-563-22-563 (Bacteroides vulgatus) (protein) IFSSCTDDFEKLNTSNIQVDPADLPFAAQCTEPMTYCYPPQQNMFQFWTNLTIDLYGGYFMTPNGNFTNGDMGENRGHSGGMYENYYLHIFNNTRRIIAQCDASGERGLSGVMRIVQAYGTLMTTDAYGPIPYSSILSGENEVYFEFDSQKDLYKAMLEDLSTAITDISAMGADEIAKLKSFDCWCNGDKDLWVKIANTMKLRMALRLSKRETEAGNAGMNLKAIATEAAQNTLATVNKDILIDKSLENEMWLMFNWGDCGFNANLVTIMSGTKDPRQPLYMTLNTGDIKNEAGTTTVAANSQYLGIRFASGLPAKPNSWGNFSGWIQGNNGSSYSMPLPIMKAAEAYFLLAEAKLRWDIGSESVKNLYENGIRVSMTNELAYRGAYAGIKEYPEGAVDAYINGTSTQIDYTDPIKAELSTPAVNKLSVKWDESASNEEKLERIITQKWLALFPLSTEGWAEQRRTGYPRFFPAFVNESNGAVNTEEGVRRVIYSSQAYDANAKGVEGGIKLLDEENSSKFGISGDKGGTHLWWDNADKGNF,glycan array binding signal (z-score),[1],-0.991
same,glycan array binding signal (z-score),[2],-0.158
same,glycan array binding signal (z-score),[3],0.149
same,glycan array binding signal (z-score),[4],0.573
same,glycan array binding signal (z-score),[5],0.875
same,glycan array binding signal (z-score),[6],0.641
same,glycan array binding signal (z-score),[7],-0.049
same,glycan array binding signal (z-score),[8],-1.33
same,glycan array binding signal (z-score),[9],0.51
same,glycan array binding signal (z-score),[10],-1.03
same,glycan array binding signal (z-score),[11],0.966
same,glycan array binding signal (z-score),[12],-0.562
same,glycan array binding signal (z-score),[13],0.978
same,glycan array binding signal (z-score),[14],1.11
same,glycan array binding signal (z-score),[15],-0.222
same,glycan array binding signal (z-score),[16],-1.23
same,glycan array binding signal (z-score),[17],-0.111
same,glycan array binding signal (z-score),[18],-0.971
same,glycan array binding signal (z-score),[19],0.014
same,glycan array binding signal (z-score),[20],-0.653
same,glycan array binding signal (z-score),[21],-0.892
same,glycan array binding signal (z-score),[22],0.495
same,glycan array binding signal (z-score),[23],0.069
same,glycan array binding signal (z-score),[24],2.32
same,glycan array binding signal (z-score),[25],-0.527
same,glycan array binding signal (z-score),[26],-0.787
same,glycan array binding signal (z-score),[27],-0.866
same,glycan array binding signal (z-score),[28],0.464
same,glycan array binding signal (z-score),[29],0.944
same,glycan array binding signal (z-score),[30],-0.355
same,glycan array binding signal (z-score),[31],0.444
same,glycan array binding signal (z-score),[32],1.39
same,glycan array binding signal (z-score),[33],0.274
same,glycan array binding signal (z-score),[34],-0.201
same,glycan array binding signal (z-score),[35],0.445
same,glycan array binding signal (z-score),[36],-1.13
same,glycan array binding signal (z-score),[37],-0.31
same,glycan array binding signal (z-score),[38],-0.22
same,glycan array binding signal (z-score),[39],0.241
same,glycan array binding signal (z-score),[40],-0.718
same,glycan array binding signal (z-score),[41],0.111
same,glycan array binding signal (z-score),[42],0.004
same,glycan array binding signal (z-score),[43],-0.703
same,glycan array binding signal (z-score),[44],-0.341
same,glycan array binding signal (z-score),[45],-0.567
same,glycan array binding signal (z-score),[46],-0.081
same,glycan array binding signal (z-score),[47],0.185
same,glycan array binding signal (z-score),[48],2.5
same,glycan array binding signal (z-score),[49],0.033
same,glycan array binding signal (z-score),[50],-0.698
same,glycan array binding signal (z-score),[51],-1.01
same,glycan array binding signal (z-score),[52],-0.479
same,glycan array binding signal (z-score),[53],1.66
same,glycan array binding signal (z-score),[54],0.602
same,glycan array binding signal (z-score),[55],-0.769
same,glycan array binding signal (z-score),[56],-1.2
same,glycan array binding signal (z-score),[57],-0.064
same,glycan array binding signal (z-score),[58],-0.676
same,glycan array binding signal (z-score),[59],2.71
same,glycan array binding signal (z-score),[60],1.37

# Reformatted with tabs: entries from further up
binder	measurement	setting	value
GS7807I-bvu-563-22-563 (Bacteroides vulgatus) (protein) IFSSCTDDFEKLNTSNIQVDPADLPFAAQCTEPMTYCYPPQQNMFQFWTNLTIDLYGGYFMTPNGNFTNGDMGENRGHSGGMYENYYLHIFNNTRRIIAQCDASGERGLSGVMRIVQAYGTLMTTDAYGPIPYSSILSGENEVYFEFDSQKDLYKAMLEDLSTAITDISAMGADEIAKLKSFDCWCNGDKDLWVKIANTMKLRMALRLSKRETEAGNAGMNLKAIATEAAQNTLATVNKDILIDKSLENEMWLMFNWGDCGFNANLVTIMSGTKDPRQPLYMTLNTGDIKNEAGTTTVAANSQYLGIRFASGLPAKPNSWGNFSGWIQGNNGSSYSMPLPIMKAAEAYFLLAEAKLRWDIGSESVKNLYENGIRVSMTNELAYRGAYAGIKEYPEGAVDAYINGTSTQIDYTDPIKAELSTPAVNKLSVKWDESASNEEKLERIITQKWLALFPLSTEGWAEQRRTGYPRFFPAFVNESNGAVNTEEGVRRVIYSSQAYDANAKGVEGGIKLLDEENSSKFGISGDKGGTHLWWDNADKGNF	glycan array binding signal (z-score)	[48]	2.5
same	glycan array binding signal (z-score)	[49]	0.033
same	glycan array binding signal (z-score)	[50]	-0.698
